PMC12011273
Like-named read-outs stand apart in the source and are kept apart here. These are yes or no findings as the source states them, for the method shown. In cells and extracts the contact can be indirect. Some entries that bind do so weakly or less than the wild type. For some assays here: Tags and fused reporters may be left off the sequences shown.

Sequences of proteins named here, by UniProt entry; tags and fusion partners are left off.
UniProt Q92841: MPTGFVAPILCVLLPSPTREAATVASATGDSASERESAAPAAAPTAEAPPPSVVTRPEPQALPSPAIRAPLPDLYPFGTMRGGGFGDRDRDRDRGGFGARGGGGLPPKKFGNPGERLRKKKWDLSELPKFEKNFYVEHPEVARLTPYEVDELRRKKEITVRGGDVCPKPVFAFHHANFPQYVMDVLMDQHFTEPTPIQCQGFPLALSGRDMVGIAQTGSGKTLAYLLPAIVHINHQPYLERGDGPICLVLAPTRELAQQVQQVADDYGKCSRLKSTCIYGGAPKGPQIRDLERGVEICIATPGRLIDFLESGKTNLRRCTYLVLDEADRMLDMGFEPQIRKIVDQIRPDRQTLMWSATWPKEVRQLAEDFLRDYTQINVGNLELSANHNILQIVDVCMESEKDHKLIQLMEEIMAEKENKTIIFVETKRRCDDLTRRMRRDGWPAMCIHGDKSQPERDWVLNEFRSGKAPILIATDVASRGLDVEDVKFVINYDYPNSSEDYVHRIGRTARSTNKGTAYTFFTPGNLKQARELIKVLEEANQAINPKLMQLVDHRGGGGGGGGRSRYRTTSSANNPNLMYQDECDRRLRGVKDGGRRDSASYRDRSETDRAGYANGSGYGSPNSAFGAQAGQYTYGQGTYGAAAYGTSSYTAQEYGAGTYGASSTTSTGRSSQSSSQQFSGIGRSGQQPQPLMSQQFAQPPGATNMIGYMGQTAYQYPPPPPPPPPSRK
UniProt P17844: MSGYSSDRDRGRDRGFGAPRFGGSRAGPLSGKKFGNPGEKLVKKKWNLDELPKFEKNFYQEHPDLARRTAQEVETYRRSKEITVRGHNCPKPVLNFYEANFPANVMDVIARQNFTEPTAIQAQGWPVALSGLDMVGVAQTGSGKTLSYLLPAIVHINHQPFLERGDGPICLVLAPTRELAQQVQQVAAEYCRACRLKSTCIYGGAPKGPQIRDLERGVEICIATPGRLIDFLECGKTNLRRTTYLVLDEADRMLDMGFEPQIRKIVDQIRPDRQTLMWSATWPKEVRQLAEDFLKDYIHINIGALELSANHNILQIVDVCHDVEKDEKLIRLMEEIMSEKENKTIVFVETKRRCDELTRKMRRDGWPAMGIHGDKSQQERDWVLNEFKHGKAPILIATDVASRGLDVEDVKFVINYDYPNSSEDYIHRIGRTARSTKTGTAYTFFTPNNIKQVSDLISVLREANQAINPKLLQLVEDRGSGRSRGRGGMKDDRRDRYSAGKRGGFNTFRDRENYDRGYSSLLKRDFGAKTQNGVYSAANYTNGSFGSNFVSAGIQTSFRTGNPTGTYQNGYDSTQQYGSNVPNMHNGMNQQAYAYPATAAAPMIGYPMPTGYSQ

Tests used:
[1] = target: T1, V5-tagged KSHV viral serine/threonine protein kinase (vPK), encoded by ORF36 (Kaposi's sarcoma-associated herpesvirus (KSHV)) (UniProt F5HGH5); assay: co-IP; HEK293T cells co-transfected with tagged proteins (two or three together), harvested 48 or 72 h post transfection in RIPA buffer; anti-V5, anti-HA, anti-myc or anti-FLAG beads, overnight; four washes with RIPA; eluted with competitive peptide and with Laemmli buffer; Western blot
T1 sequence: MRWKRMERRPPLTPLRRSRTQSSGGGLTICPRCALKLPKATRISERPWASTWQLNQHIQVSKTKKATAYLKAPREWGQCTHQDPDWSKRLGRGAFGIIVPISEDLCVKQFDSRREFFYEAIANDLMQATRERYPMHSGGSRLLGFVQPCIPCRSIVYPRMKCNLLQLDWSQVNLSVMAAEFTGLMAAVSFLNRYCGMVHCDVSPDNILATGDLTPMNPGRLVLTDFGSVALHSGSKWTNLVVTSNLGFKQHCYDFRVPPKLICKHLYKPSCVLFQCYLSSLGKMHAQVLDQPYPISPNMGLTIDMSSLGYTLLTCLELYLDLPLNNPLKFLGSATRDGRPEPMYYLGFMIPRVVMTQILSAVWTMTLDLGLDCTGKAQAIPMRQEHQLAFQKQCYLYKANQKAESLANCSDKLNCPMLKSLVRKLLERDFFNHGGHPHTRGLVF

[2] = target: T2, 3X-FLAG tagged EBV BGLF4 (Epstein-Barr virus (EBV)) (UniProt P13288); assay: as above
T2 sequence: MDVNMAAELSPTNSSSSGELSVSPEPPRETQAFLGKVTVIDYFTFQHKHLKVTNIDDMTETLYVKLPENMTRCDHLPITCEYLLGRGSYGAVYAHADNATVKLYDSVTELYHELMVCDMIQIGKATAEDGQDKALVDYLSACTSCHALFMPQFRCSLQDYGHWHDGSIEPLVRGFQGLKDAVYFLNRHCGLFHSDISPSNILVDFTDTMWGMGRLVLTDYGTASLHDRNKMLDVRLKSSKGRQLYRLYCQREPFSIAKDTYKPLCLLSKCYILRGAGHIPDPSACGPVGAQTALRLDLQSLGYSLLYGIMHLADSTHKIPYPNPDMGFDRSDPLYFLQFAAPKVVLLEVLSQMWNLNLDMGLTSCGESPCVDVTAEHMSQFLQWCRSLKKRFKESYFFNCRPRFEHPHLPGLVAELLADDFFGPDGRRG

[3] = target: myc-tagged DDX17 (human) (UniProt Q92841); assay: as above
[4] = target: T3, V5-tagged KSHV vPK expressed in KSHV-infected cells (Kaposi's sarcoma-associated herpesvirus (KSHV)) (UniProt F5HGH5); assay: co-IP; V5-vPK transfected into iSLK.219 and 293T.219 cells latently infected with KSHV, lytic reactivation induced; IP with anti-V5 agarose; blot for endogenous DDX5 and DDX17 (n=1)
T3 sequence: T1 sequence

[5] = target: HA-tagged DDX5 (human) (UniProt P17844); assay: co-IP; HEK293T cells co-transfected with tagged proteins (two or three together), harvested 48 or 72 h post transfection in RIPA buffer; anti-V5, anti-HA, anti-myc or anti-FLAG beads, overnight; four washes with RIPA; eluted with competitive peptide and with Laemmli buffer; Western blot
[6] = target: HA-tagged DDX5 (human) (UniProt P17844); assay: as above; remark: listed apart in the source
[7] = target: myc-tagged DDX17 (human) (UniProt Q92841); assay: as above; remark: listed apart in the source
[8] = target: myc-tagged DDX5 (human) (UniProt P17844); assay: as above

HA-tagged DDX5 (from UniProt P17844 1-614)
binding [1]: binds
binding [2]: binds
binding [3]: binds

endogenous DDX5 (from UniProt P17844 1-614)
binding [4]: binds

endogenous DDX17 (from UniProt Q92841 1-729)
binding [4]: binds

myc-tagged DDX5 (from UniProt P17844 1-614)
binding [1]: binds

myc-tagged DDX17 (from UniProt Q92841 1-729)
binding [5]: binds
binding [1]: binds
binding [2]: binds

B1: 3X-FLAG tagged EBV BGLF4 (protein, UniProt P13288 1-429)
chain: T2 sequence
binding [6]: binds
binding [7]: binds

B2: V5-tagged KSHV viral serine/threonine protein kinase (vPK), encoded by ORF36 (protein, UniProt F5HGH5 1-444)
chain: T1 sequence
binding [8]: binds
binding [6]: binds
binding [7]: binds
